PubChem BioAssay AID686938, Drosophila RNAi Screening Center | 2013
The deposit covers about 23,000 reagents; this is a random part of those that have a named target and a result. Of all reagents, 75 (0.33%) are marked active. 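Raw plate signals without normalisation; calls rest on plate z-scores that were not deposited; ratio present for only 364 wells.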 Entries without a mark were called inactive. The numbers tell different reagents against one gene apart. Names joined by + are all predicted targets of the reagent. Reagent sequences are not shown. Not stated in the record: the dose of the treatment.

Purpose: 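Knock-downs reducing store-operated calcium influx in Drosophila cells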 (primary screen)
Cells: Drosophila S2R+ cells
Reagent: long dsRNA against Drosophila genes, about 0.25 µg dsRNA per well, roughly 10,000 cells
Timing: 5 days of knock-down before the calcium assay
Challenge: thapsigargin (SERCA pump blocker) to empty calcium stores; entry signal taken 4 min after adding it
Measured: 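Per-well fluo-4 fluorescence in two replicates, unnormalised, measured in resting cells and 4 min after store depletion by the SERCA blocker thapsigargin; ratio of the two present in few wells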
Reading the numbers: calcium entry signal: higher = stronger calcium signal after store depletion; entry to resting ratio: higher = more calcium entry relative to resting level; resting calcium signal: higher = higher resting calcium signal
Units: calcium entry signal in fluorescence units; resting calcium signal in fluorescence units
Active means: 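Hit if the duplicate-averaged plate z-score for entry over resting signal is under −3; wells with weak total dye signal (Fmax z < −2) or more than 5 off-targets removed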
Calls: active = strongly reduced calcium entry; inactive = no strong reduction

CG7492 (GeneID 38859)
- calcium entry signal, replicate 1: 5.72e7
- calcium entry signal, replicate 2: 4.47e7
- resting calcium signal, replicate 1: 3.97e7
- resting calcium signal, replicate 2: 1.69e7

CG1924 (GeneID 32180)
- calcium entry signal, replicate 1: 4.01e7
- calcium entry signal, replicate 2: 4.81e7
- resting calcium signal, replicate 1: 1.96e7
- resting calcium signal, replicate 2: 2.33e7

kappaTry (GeneID 36215)
- calcium entry signal, replicate 1: 2.78e7
- calcium entry signal, replicate 2: 3.93e7
- resting calcium signal, replicate 1: 1.47e7
- resting calcium signal, replicate 2: 1.88e7

Ptp4E (GeneID 31425)
- calcium entry signal, replicate 1: 2.78e7
- calcium entry signal, replicate 2: 2.34e7
- resting calcium signal, replicate 1: 1.19e7
- resting calcium signal, replicate 2: 1.09e7

CG2790 (GeneID 37992)
- calcium entry signal, replicate 1: 2.75e7
- resting calcium signal, replicate 1: 1.41e7

Graf (GeneID 32522)
- calcium entry signal, replicate 1: 3.57e7
- calcium entry signal, replicate 2: 3.86e7
- resting calcium signal, replicate 1: 1.54e7
- resting calcium signal, replicate 2: 1.61e7

Echs1 (GeneID 36536)
- calcium entry signal, replicate 1: 3.42e7
- calcium entry signal, replicate 2: 4.43e7
- resting calcium signal, replicate 1: 1.74e7
- resting calcium signal, replicate 2: 1.84e7

Lztr1 (GeneID 31037) #1
- calcium entry signal, replicate 1: 3.77e7
- calcium entry signal, replicate 2: 5.50e7
- entry to resting ratio: 2
- resting calcium signal, replicate 1: 1.90e7
- resting calcium signal, replicate 2: 2.03e7

Lztr1 (GeneID 31037) #2
- calcium entry signal, replicate 1: 3.54e7
- calcium entry signal, replicate 2: 6.35e7
- entry to resting ratio: 2.1
- resting calcium signal, replicate 1: 1.70e7
- resting calcium signal, replicate 2: 2.20e7

Ir7c (GeneID 31692)
- calcium entry signal, replicate 1: 3.32e7
- calcium entry signal, replicate 2: 3.12e7
- resting calcium signal, replicate 1: 1.59e7
- resting calcium signal, replicate 2: 1.41e7

CG30098 (GeneID 246456)
- calcium entry signal, replicate 1: 1.61e7
- calcium entry signal, replicate 2: 4.08e7
- resting calcium signal, replicate 1: 8.13e6
- resting calcium signal, replicate 2: 2.52e7

CCT1 (GeneID 42649)
- calcium entry signal, replicate 1: 1.56e7
- calcium entry signal, replicate 2: 1.76e7
- resting calcium signal, replicate 1: 1.03e7
- resting calcium signal, replicate 2: 5.66e7

Pcmt (GeneID 40668)
- calcium entry signal, replicate 1: 3.83e7
- calcium entry signal, replicate 2: 2.66e7
- resting calcium signal, replicate 1: 1.78e7
- resting calcium signal, replicate 2: 1.24e7

CG42380 + CG42379 + PIG-M + 1 more #1
- calcium entry signal, replicate 1: 3.01e7
- calcium entry signal, replicate 2: 4.96e7
- resting calcium signal, replicate 1: 1.50e7
- resting calcium signal, replicate 2: 4.89e7

CG42380 + CG42379 + PIG-M + 1 more #2
- calcium entry signal, replicate 1: 2.70e7
- resting calcium signal, replicate 1: 1.44e7

CG40583 (retired record) (GeneID 5740259)
- calcium entry signal, replicate 1: 2.65e7
- calcium entry signal, replicate 2: 3.89e7
- resting calcium signal, replicate 1: 1.35e7
- resting calcium signal, replicate 2: 1.74e7

Hr38 (GeneID 35332) #1
- calcium entry signal, replicate 1: 4.85e7
- calcium entry signal, replicate 2: 6.25e7
- resting calcium signal, replicate 1: 2.54e7
- resting calcium signal, replicate 2: 2.82e7

Hr38 (GeneID 35332) #2
- calcium entry signal, replicate 1: 3.32e7
- calcium entry signal, replicate 2: 3.98e7
- resting calcium signal, replicate 1: 1.54e7
- resting calcium signal, replicate 2: 1.79e7

PGRP-LC (GeneID 39063) #1
- calcium entry signal, replicate 1: 6.12e7
- calcium entry signal, replicate 2: 4.04e7
- resting calcium signal, replicate 1: 3.12e7
- resting calcium signal, replicate 2: 1.84e7

PGRP-LC (GeneID 39063) #2
- calcium entry signal, replicate 1: 1.53e7
- calcium entry signal, replicate 2: 1.99e7
- resting calcium signal, replicate 1: 8.24e6
- resting calcium signal, replicate 2: 9.85e6

PGRP-LC (GeneID 39063) #3
- calcium entry signal, replicate 1: 1.59e7
- calcium entry signal, replicate 2: 1.97e7
- resting calcium signal, replicate 1: 8.77e6
- resting calcium signal, replicate 2: 9.88e6

2 entries from above, reformatted:
{"Target gene": "CG1924 (GeneID 32180)", "reagent": 1, "calcium entry signal, replicate 1": 4.01e7, "calcium entry signal, replicate 2": 4.81e7, "resting calcium signal, replicate 1": 1.96e7, "resting calcium signal, replicate 2": 2.33e7}
{"Target gene": "kappaTry (GeneID 36215)", "reagent": 1, "calcium entry signal, replicate 1": 2.78e7, "calcium entry signal, replicate 2": 3.93e7, "resting calcium signal, replicate 1": 1.47e7, "resting calcium signal, replicate 2": 1.88e7}
